Among the data in patent US20100028340A1 are binding values, retold here.

The target of test [1] is recombinant rat RGM A (rat). The test is described as follows: ELISA (data not shown).
The target of test [2] is recombinant rat RGM A (rat). The test is described as follows: direct ELISA on rRatRGMA.

These are yes or no findings as the source states them, for the method shown. Some entries that bind do so weakly or less than the wild type.

B1: rat anti-human RGM A monoclonal antibody 5F9 (antibody, V domains shown)
VH: EVQLVESGGGLVQPGSSLKLSCVASGFTFSNYGMNWIRQAPKKGLEWIGMIYYDSSEKHYADSVKGRFTISRDNSKNTLYLEMNSLRSEDTAIYYCAKGTTPDYWGQGVMVTVSS
VL: DVVLTQTPVSLSVTLGDQASMSCRSSQSLEYSDGYTFLEWFLQKPGQSPQLLIYEVSNRFSGVPDRFIGSGSGTDFTLKISRVEPEDLGVYYCFQATHDPLTFGSGTKLEIKR
Take B1: the binding entry in test [1] and in test [2] was “binds” in each case.
